Results are given in words; binding and its absence hold for the method and conditions named. In cells and extracts the contact can be indirect. Some results given as binding are weak or reduced against the parent protein; the word gives no strength.
Molecular target: BAF155 (SMARCC1), a core subunit of SWI/SNF complexes (human (endogenous in Kelly)) (UniProt Q92922)
Assay: co-IP; IP of endogenous BAF155 (Santa Cruz sc-32763) with Pierce IP Lysis Buffer and Protein A/G magnetic beads; Kelly shARID1A cells with or without doxycycline 72 h (ARID1A knockdown), IFNγ 24 h; Western blot for BAF155, ARID1A and IRF1

Chains of the proteins cited; added tags and fusions are not shown.
UniProt Q92922: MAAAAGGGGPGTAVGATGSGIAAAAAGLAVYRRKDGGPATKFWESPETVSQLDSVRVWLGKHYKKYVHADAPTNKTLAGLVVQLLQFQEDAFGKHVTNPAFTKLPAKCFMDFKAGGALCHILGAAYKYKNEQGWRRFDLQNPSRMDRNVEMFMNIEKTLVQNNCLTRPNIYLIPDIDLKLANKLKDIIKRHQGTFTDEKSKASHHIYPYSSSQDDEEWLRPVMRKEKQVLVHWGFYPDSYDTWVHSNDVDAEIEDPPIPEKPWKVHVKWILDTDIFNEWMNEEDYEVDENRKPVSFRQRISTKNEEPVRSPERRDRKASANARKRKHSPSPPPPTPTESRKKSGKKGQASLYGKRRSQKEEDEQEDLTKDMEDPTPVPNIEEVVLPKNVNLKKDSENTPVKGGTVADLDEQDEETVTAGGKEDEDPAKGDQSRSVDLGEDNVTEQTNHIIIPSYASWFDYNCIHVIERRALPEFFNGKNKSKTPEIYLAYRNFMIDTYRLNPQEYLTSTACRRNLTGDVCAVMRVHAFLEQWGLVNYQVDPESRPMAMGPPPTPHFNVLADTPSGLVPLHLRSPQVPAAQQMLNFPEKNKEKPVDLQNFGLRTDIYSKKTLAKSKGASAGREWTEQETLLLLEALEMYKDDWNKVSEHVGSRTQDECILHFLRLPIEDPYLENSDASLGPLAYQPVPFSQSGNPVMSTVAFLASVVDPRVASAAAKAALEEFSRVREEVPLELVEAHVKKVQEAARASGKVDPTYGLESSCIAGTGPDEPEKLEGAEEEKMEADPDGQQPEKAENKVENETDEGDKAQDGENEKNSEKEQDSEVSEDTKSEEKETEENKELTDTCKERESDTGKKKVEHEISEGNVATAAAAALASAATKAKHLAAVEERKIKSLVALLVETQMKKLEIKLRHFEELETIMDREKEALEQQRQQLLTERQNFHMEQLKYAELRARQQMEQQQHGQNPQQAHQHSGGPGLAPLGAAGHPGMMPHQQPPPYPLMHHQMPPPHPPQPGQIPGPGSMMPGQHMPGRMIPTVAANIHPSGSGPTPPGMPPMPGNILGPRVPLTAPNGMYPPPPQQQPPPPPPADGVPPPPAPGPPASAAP

B1: interferon response factor 1 (IRF1) (protein, UniProt P10914 1-325)
chain: MPITRMRMRPWLEMQINSNQIPGLIWINKEEMIFQIPWKHAAKHGWDINKDACLFRSWAIHTGRYKAGEKEPDPKTWKANFRCAMNSLPDIEEVKDQSRNKGSSAVRVYRMLPPLTKNQRKERKSKSSRDAKSKAKRKSCGDSSPDTFSDGLSSSTLPDDHSSYTVPGYMQDLEVEQALTPALSPCAVSSTLPDWHIPVEVVPDSTSDLYNFQVSPMPSTSEATTDEDEEGKLPEDIMKLLEQSEWQPTNVDGKGYLLNEPGVQPTSVYGDFSCKEEPEIDSPGGDIGLSLQRVFTDLKNMDATWLDSLLTPVRLPSIQAIPCAP
- binding: binds
